This is an account of results in patent publication US20070041901.

Protein sequences, listed by entry. Tags and fused reporters are not part of them. Lines headed by an entry give the natural chain unless they say otherwise; changes in a name come on top.
UniProt Q04609: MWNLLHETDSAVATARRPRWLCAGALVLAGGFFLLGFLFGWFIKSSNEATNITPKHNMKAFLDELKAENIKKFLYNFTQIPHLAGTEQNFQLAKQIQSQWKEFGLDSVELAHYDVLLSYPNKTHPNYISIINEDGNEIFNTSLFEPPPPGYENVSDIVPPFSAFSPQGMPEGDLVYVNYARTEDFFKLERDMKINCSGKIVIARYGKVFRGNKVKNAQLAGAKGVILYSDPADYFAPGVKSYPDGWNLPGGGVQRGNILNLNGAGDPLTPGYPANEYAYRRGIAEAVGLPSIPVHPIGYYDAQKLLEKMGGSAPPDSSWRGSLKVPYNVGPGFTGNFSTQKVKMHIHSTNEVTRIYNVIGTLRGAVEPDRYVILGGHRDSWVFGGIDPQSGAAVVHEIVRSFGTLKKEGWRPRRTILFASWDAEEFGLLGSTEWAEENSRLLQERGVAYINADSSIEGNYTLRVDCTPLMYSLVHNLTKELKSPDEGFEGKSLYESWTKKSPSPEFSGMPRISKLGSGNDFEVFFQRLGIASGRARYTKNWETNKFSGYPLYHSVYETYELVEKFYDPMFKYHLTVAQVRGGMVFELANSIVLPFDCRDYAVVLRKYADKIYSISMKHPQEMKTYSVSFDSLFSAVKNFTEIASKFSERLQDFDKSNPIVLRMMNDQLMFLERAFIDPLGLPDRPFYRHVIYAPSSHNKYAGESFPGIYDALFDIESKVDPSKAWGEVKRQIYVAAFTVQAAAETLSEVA

For part of these data: No signal at the amounts used counts as a negative. For part of these data: At least one result comes from cells or an extract, where the contact may be indirect.

Series [1] concerns the target PSMA (endogenous, LNCaP cells) (Homo sapiens) (UniProt Q04609). As to the kind of experiment: flow cytometry. Particulars: 2'-F C and U, protein on the cell surface. In general terms: In flow cytometry, cells or beads pass a laser one at a time.
Series [2] deals with PSMA (prostate-specific membrane antigen) extracellular domain (Homo sapiens) (UniProt Q04609). The series is described as follows: inhibition of the protein. The conditions noted are these: ribo-free: 2'-OMe, 2'-F, 2'-deoxy, one 2'-deoxy phosphorothioate (U-s-dG); 3'-inverted dT, positions as printed; retained full NAALADase inhibition activity relative to unmodified ARC591; purified recombinant protein; variant of ARC591; dose not given here.

Series [3] deals with PSMA (endogenous, LNCaP cells) (Homo sapiens) (UniProt Q04609). The series is described as follows: activity in cells. The conditions noted are these: 2'-OMe A, C, U; 2'-OH G; vinblastine hydrazide; no LNCaP killing over entire concentration range; protein on the cell surface; variant of ARC725; dose not given here.
Series [4] shares this target. The series is described as follows: competition with a labelled probe. The conditions noted are these: 3'-inverted dT, competes with fluorescent anti-PSMA antibody on LNCaP cells (FACS), protein on the cell surface, label: 5'-C6-FAM, variant of A9 (xPSM-A9).

For the sequence “GGGAGGACGAUGCGGACCGAAAAAGACCUGACUUCUAUACUAAGUCUACGUUCCCAGACGACUCGCCCGA [A9 (xPSM-A9)]”, the binding result in series [1] (2'-OH A and G (rRfY), binds LNCaP (PSMA+), not PC-3 (PSMA-), competed by anti-PSMA antibody, label: fluorescent) is listed as “binds”.

Turning to “CGGACCGAACAAGGCCUGACUUCUAUACUAAGCCUACGUUCCG [ARC1725]”, in series [2], the “functional effect of the aptamer” value is recorded as “active”.

In the case of “CUACUACACAUGGGUCGGGUGAGUGGCAAAGGAAUAGUAG [ARC725-vinblastine conjugate]”, in series [3], the “functional effect of the aptamer” value is given as “not active”.

As for “CGGACCGAAAAAGACCUGACUUCUAUACUAAGUCUACGUUCCG [ARC711]”, the binding result in series [4] (2'-F, 2'-OMe and 2'-OH as printed (mCmGmGmAfCfCmGAAAAmAmGmAmCfCfUGAfCfUfUfCfUAfUAfCfUAAmGmUmCmUAfCmGfUmUmCmCmG-3T)) was “binds”.

Take “GGAGGACCGAAAAAGACCUGACUUCUAUACUAAGUCUACGUUCCUCCA [ARC591]”: the binding result in series [1] (2'-OH A and G, variant of A9 (xPSM-A9)) is “binds”.

As for “GGAGGACCGAAAAAGACCUGACUUCUAUACUAAGUCUACGUUCCUCC [ARC710]”, the binding result in series [4] (2'-F C and U, 2'-OH A and G) is on record as “binds”.
